Measurements taken from article PMC11984406.

Amino acid sequences for entries named in this document (tags omitted).
UniProt P35222: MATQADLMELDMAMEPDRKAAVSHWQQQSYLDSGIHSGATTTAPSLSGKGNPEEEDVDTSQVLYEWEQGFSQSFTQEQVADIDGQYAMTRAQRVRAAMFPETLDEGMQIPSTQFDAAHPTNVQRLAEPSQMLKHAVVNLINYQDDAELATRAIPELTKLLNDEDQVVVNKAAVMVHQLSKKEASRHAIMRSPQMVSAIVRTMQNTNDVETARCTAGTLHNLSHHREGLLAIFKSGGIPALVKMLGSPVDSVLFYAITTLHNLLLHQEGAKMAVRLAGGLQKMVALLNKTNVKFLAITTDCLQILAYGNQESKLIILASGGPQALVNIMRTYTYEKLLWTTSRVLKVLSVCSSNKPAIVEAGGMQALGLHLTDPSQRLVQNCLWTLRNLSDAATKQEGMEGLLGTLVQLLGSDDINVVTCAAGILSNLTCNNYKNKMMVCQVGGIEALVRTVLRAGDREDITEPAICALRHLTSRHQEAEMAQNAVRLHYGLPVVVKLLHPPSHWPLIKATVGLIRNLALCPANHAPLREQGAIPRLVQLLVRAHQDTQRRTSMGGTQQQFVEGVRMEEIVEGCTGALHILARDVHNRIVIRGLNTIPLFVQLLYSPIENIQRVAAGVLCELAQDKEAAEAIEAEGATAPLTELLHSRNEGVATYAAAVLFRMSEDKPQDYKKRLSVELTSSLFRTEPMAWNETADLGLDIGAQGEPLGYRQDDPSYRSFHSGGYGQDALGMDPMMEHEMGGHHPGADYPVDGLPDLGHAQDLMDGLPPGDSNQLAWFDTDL

Molecular target: T1, GFP-RNF138 (UniProt Q8WVD3)
T1 sequence: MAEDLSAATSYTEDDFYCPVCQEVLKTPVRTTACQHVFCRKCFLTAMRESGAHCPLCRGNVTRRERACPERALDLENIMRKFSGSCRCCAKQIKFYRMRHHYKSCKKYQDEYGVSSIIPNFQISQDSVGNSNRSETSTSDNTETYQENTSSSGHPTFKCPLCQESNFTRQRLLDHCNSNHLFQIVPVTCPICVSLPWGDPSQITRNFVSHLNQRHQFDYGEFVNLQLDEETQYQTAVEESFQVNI
Assay: affinity purification with mass spectrometry; co-immunoprecipitation of RNF138 followed by mass spectrometry (Co-IP/MS); bait construct and cells not told for this experiment

- binding: binds
Substance: β-catenin (from UniProt P35222 1-781)

Results are given in words; binding and its absence hold for the method and conditions named. In cells and extracts the contact can be indirect. These calls come from enrichment with a bait or labelling near it, and not all partners need be listed. Where a sequence is shown, tags or fusion partners need not be part of it.
